In paper PMC10299824 one finds binding data, which are given here for 2 molecules.

The chains behind the UniProt entries cited, without tags or fusion partners. Where a name states a change or a piece, a line headed by the entry shows the natural chain unless it says otherwise.
UniProt P05554: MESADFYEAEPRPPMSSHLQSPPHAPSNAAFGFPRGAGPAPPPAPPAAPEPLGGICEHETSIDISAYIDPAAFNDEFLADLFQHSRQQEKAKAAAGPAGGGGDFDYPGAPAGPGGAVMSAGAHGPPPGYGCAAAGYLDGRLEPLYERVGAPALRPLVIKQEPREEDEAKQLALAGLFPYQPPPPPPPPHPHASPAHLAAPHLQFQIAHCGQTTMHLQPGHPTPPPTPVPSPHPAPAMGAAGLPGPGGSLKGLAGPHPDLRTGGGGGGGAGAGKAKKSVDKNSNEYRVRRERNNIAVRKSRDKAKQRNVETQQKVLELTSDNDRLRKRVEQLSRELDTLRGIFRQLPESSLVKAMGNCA
UniProt Q60974: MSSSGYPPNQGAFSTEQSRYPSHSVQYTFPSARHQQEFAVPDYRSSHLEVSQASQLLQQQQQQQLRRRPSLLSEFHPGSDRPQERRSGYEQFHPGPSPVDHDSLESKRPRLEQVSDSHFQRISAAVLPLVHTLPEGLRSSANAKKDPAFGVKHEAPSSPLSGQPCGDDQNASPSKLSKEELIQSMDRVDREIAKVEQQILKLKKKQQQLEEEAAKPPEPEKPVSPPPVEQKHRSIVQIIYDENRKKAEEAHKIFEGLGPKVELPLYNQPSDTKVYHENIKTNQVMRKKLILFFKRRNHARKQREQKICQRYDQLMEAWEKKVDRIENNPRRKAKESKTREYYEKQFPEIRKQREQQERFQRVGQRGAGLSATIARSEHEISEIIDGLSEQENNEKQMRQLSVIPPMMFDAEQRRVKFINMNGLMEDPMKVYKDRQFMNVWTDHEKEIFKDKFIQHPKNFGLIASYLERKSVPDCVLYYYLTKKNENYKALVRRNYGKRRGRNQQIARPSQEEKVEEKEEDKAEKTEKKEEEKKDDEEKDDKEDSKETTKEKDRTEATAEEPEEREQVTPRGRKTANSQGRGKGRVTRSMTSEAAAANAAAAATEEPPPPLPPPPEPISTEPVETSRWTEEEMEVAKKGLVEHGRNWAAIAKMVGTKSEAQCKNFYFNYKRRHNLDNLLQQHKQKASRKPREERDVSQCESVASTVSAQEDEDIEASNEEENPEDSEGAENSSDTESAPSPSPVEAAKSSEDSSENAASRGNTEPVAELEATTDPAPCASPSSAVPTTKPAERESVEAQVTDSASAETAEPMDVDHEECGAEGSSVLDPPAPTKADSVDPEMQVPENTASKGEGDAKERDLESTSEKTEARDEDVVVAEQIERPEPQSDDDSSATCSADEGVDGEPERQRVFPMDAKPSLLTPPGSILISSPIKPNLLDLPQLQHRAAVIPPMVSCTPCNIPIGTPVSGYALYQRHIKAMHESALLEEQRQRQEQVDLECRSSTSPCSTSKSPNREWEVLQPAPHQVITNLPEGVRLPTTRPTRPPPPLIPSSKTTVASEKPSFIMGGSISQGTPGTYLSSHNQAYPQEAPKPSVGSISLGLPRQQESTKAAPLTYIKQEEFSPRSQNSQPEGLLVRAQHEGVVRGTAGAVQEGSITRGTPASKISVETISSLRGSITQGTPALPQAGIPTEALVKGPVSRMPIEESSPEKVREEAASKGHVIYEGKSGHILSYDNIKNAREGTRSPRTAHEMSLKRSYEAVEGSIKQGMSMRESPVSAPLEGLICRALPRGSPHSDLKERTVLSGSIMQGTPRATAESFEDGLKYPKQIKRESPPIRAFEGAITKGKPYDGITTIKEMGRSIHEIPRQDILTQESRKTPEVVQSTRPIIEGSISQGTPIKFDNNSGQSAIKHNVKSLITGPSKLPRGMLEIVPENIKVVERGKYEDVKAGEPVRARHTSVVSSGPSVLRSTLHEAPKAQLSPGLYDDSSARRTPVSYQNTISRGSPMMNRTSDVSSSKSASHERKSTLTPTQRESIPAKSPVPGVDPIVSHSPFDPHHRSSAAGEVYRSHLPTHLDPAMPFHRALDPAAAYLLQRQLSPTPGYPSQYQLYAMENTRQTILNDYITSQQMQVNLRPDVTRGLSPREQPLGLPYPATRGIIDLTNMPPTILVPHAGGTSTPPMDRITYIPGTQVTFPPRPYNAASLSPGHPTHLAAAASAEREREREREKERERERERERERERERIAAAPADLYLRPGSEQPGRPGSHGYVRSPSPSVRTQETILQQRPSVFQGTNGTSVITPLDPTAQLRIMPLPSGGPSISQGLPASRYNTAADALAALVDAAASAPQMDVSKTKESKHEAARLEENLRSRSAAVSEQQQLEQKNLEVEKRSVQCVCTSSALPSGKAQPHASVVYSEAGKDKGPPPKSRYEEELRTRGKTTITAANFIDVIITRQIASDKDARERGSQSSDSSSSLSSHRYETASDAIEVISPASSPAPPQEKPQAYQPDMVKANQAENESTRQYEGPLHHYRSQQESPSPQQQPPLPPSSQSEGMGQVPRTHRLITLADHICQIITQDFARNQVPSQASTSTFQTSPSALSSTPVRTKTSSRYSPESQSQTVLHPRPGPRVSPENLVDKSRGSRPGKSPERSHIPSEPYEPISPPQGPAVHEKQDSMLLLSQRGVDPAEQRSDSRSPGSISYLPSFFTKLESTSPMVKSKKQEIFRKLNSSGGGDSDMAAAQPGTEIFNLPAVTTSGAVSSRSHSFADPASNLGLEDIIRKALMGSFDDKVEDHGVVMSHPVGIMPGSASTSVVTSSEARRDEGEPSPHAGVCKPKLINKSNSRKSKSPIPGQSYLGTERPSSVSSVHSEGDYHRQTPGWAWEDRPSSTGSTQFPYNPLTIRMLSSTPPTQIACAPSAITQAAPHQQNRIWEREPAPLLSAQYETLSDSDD

No constants are given. Whether binding was seen depends on the method and setting. In cells and extracts the contact can be indirect. A yes stands for co-enrichment or nearness to the bait. Other partners may have been found.

For this test, the target named is full length (p42) C/EBPα^R35A fused to the biotin ligase TurboID (UniProt P05554). Description: proximity labelling; C/EBPα-TurboID fusions in Cebpa/Cebpb double knockout mouse pre-B cell line; Dox 6 hr, 500 µM biotin 30 min; biotinylated proteins pulled down, LC-MS/MS; TurboID only as control.

For the molecule Ncor1 (from UniProt Q60974 1-2453), the binding result is listed as “binds”.

B1: Ebf1 (protein, UniProt Q07802 1-591)
chain: MFGIQESIQRSGSSMKEEPLGSGMNAVRTWMQGAGVLDANTAAQSGVGLARAHFEKQPPSNLRKSNFFHFVLALYDRQGQPVEIERTAFVGFVEKEKEANSEKTNNGIHYRLQLLYSNGIRTEQDFYVRLIDSMTKQAIVYEGQDKNPEMCRVLLTHEIMCSRCCDKKSCGNRNETPSDPVIIDRFFLKFFLKCNQNCLKNAGNPRDMRRFQVVVSTTVNVDGHVLAVSDNMFVHNNSKHGRRARRLDPSEGTPSYLEHATPCIKAISPSEGWTTGGATVIIIGDNFFDGLQVIFGTMLVWSELITPHAIRVQTPPRHIPGVVEVTLSYKSKQFCKGTPGRFIYTALNEPTIDYGFQRLQKVIPRHPGDPERLPKEVILKRAADLVEALYGMPHNNQEIILKRAADIAEALYSVPRNHNQLPALANTSVHAGMMGVNSFSGQLAVNVSEASQATNQGFTRNSSSVSPHGYVPSTTPQQTNYNSVTTSMNGYGSAAMSNLGGSPTFLNGSAANSPYAIVPSSPTMASSTSLPSNCSSSSGIFSFSPANMVSAVKQKSAFAPVVRPQTSPPPTCTSTNGNSLQAISGMIVPPM
In the case of B1, the binding entry is “binds”.
